# Experimental data taken from PubChem BioAssay.
# Protein sequences, listed by entry. Tags and fused reporters are not part of them. Lines headed by an entry give the natural chain unless they say otherwise; changes in a name come on top.
# UniProt Q9H2X9: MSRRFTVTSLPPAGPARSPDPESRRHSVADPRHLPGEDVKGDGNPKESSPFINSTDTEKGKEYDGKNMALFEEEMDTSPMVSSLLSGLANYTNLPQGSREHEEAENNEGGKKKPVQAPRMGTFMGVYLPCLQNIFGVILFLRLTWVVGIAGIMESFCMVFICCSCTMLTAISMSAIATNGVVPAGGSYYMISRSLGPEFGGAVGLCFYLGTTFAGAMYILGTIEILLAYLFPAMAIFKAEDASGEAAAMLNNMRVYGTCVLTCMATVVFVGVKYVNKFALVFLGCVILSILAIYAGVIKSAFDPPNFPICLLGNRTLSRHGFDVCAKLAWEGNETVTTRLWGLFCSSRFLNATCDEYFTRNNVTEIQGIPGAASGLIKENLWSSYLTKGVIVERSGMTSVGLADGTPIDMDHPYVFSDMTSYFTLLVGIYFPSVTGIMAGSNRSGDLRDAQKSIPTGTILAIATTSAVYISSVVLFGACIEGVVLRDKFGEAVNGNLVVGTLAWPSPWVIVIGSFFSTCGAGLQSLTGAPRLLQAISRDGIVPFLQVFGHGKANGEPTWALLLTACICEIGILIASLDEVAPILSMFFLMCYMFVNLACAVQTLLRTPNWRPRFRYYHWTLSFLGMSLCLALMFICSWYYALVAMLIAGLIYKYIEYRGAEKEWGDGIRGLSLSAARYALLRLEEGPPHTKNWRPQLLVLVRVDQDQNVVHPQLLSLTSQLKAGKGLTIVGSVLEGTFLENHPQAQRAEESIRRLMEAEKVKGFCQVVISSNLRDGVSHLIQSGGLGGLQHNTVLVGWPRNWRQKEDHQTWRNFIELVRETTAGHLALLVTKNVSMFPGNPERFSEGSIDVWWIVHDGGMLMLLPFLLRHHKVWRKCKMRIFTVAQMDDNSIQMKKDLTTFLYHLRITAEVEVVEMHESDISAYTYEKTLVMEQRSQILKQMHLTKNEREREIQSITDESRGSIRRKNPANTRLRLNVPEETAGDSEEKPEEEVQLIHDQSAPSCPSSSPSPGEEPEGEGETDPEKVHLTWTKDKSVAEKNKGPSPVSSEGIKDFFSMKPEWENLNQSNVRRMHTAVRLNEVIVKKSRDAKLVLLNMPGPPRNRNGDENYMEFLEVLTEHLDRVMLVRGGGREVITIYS
# The shares of active, inactive and inconclusive entries below differ from those in the screen. Activity calls are given as the source filed them.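 The calls were made as follows, unless noted: active = thallium flux slope beyond 3 SD from same-plate DMSO control mean in most replicates, usually higher, sometimes lower; inconclusive = repeat tests gave conflicting results; inactive = no significant difference from controls in most replicates.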
# Tests used:
# [1] = biological target: Solute carrier family 12 member 5 (Homo sapiens) (UniProt Q9H2X9); assay: retest of KCC2 transport modulators without sodium – cell-based, HEK293 KCC2, thallium flux, secondary assay, confirmation (AID 1713;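 active = thallium flux slope above the same plate's solvent-only control mean plus 3 SD; inconclusive = the two replicate wells disagree; inactive = no significant difference from solvent-only control wells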); settings: FluoZin2 fluorescence, at 10 µM, hits give high values
# Summary of the method: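 measured by = kinetic FluoZin2 fluorescence at 1 Hz, ex 480/em 540 nm | material = KCC2-expressing HEK cells | read-out = F/F0 slope over 10–20 s post-thallium, baseline-normalized | repeats = two replicates | schedule = 48 min dye loading | buffer or medium = Sodium-free N-methylglucamine chloride buffer | also added = thallium sulfate stimulus buffer at pH 7.3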
# [2] = biological target: Solute carrier family 12 member 5 (Homo sapiens) (UniProt Q9H2X9); assay: modulation of KCC2 thallium flux in HEK cells – cell-based, ouabain, retest, confirmation (AID 1717); settings: HEK293-KCC2, thallium flux FluoZin2 fluorescence, at 10 µM, bidirectional: low = inhibitor, high = activator;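 also: slope of initial-normalized fluorescence between seconds 10 and 20 after thallium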
# [3] = native HEK Tl+ uptake effects, second counter-screen – HEK cells, counterscreen 2, counter-screen for KCC2 modulator project, confirmation (AID 1718;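 active = thallium flux slope above the same plate's solvent-control mean plus 3 SD in both duplicate wells; inconclusive = duplicate wells that disagreed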;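 also: run without ouabain in cells lacking the KCC2 cotransporter; slope of fluorescence scaled to its starting value between 10 and 20 s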); settings: HEK293 parental, thallium flux FluoZin-2 fluorescence slope; at 10 µM
# Summary of the method: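 System: untransfected HEK cells, thallium influx assay; Schedule: 37 °C overnight growth, 48 min FluoZin2-AM loading; Medium: HBSS with 20 mM HEPES for dye loading; Measured by: FluoZin2-AM fluorescence (0.5 µM), ex 480 nm, em 540 nm, kinetic 1 Hz; Read-out: thallium influx rate; Compound: single 10 µM final compound dose, 0.1% DMSO.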
Compound,normalised thallium flux (F/F0 slope) [1],"raw Tl+ flux slope (below DMSO = inhibition, above = activation) [2]",thallium flux slope [3]
O=C(CCc1nnc(-c2ccc3c(c2)OCO3)o1)N1CCC(c2ccc(F)cc2)C1 (configuration not stated),inactive: 0.00708,active: 0.0135,inconclusive: 0.00954
CCC(=O)NNC(=S)NC(=O)c1ccc(C)cc1,inconclusive: 0.0115,inactive: 0.0238,inconclusive: 0.0108
COC(=O)c1c(NC(=S)Nc2cc(OC)c(Cl)cc2OC)sc2c1CCCCC2,active: 0.0152,inactive: 0.0238,inconclusive: 0.0114
Fc1cccc2sc(Nc3nc4c(F)cccc4s3)nc12,inconclusive: 0.0134,active: 0.0339,inconclusive: 0.0126
COC(=O)c1c(NC(=S)Nc2ccccc2Cl)sc(C)c1C,active: 0.0133,inconclusive: 0.0307,–
C=CCNC(=S)N/N=C/c1ccc(C)cc1C,inactive: 0.0121,inconclusive: 0.0301,inconclusive: 0.0115
COc1ccccc1N1CCN(C(=S)NC(=O)/C=C/c2ccccc2)CC1,inactive: 0.0059,inconclusive: 0.027,active: 0.014
CCOc1ccc2c(c1)c(N=NC(N)=S)c(O)n2C,inconclusive: 0.0119,inactive: 0.0273,active: 0.0123
C=C/C(C)=C/CC1C(=C)CCC2C(C)(C(=O)O)CCCC12C (configuration not stated),inactive: 0.00681,inconclusive: 0.0218,–
O=C(Nc1ccc2c(c1)Cc1ccccc1-2)c1ccco1,inconclusive: 0.0123,inactive: 0.0282,active: 0.0135
Cc1ccsc1/C=N/n1c(-c2ccccc2)n[nH]c1=S,active: 0.014,inconclusive: 0.0309,active: 0.0125
O=C(O)c1cc([N+](=O)[O-])ccc1NCc1ccccc1,inactive: 0.00988,inconclusive: 0.0138,–
CCC1CCCCN1C(=S)NC(=O)c1ccc(F)c(S(=O)(=O)N2CCOCC2)c1 (configuration not stated),inconclusive: 0.0117,active: 0.0288,inconclusive: 0.0108
CCCCCCCn1c(NC(=O)CC)nc2ccccc21,inconclusive: 0.0119,inactive: 0.0249,–
O=c1c2cc3c(cc2[nH]c(=S)n1Cc1ccco1)OCO3,inconclusive: 0.0117,inconclusive: 0.0298,–
CC1=CCC[C@@H]2[C@@](C)(CC/C(C)=C/C(=O)O)[C@H](C)CC[C@@]12C,inactive: 0.00732,inconclusive: 0.0208,–
O=C(O)CCn1c(SCc2cccc3ccccc23)nc2ccccc21,inconclusive: 0.0105,active: 0.0155,–
O=C(NC(=S)N1CCCCC1)c1csc([N+](=O)[O-])c1,active: 0.0224,inconclusive: 0.0297,–
O=C(N/N=C1\CCCc2ccccc21)c1cccc([N+](=O)[O-])c1,inconclusive: 0.0115,inactive: 0.0258,–
Cc1cnc(NC(=O)CSc2nnc(Cc3ccccc3)o2)s1,inactive: 0.00741,inconclusive: 0.0145,–
Cc1[nH]n(-c2ccccc2)c(=O)c1/C=N/N1C(=O)c2ccc3c4c(ccc(c24)C1=O)CC3,inconclusive: 0.0121,inconclusive: 0.0301,–
COc1ccc(-c2nnc(NC(=O)c3ccccc3C)o2)cc1,active: 0.0149,inactive: 0.0265,inconclusive: 0.0107
Cc1nc2c(c(=O)n1CCC1=CCCCC1)c1nc3ccccc3nc1n2/N=C/c1ccco1,inactive: 0.0062,inactive: 0.0186,–
O=C(c1ccc(COc2ccccc2Cl)o1)N1CCN(Cc2ccc3c(c2)OCO3)CC1,inactive: 0.00698,inconclusive: 0.0162,inactive: 0.0102
Cc1cc(=O)n(Cc2ccc(OC(C)C)cc2)c(=S)[nH]1,inconclusive: 0.0123,inconclusive: 0.0256,–
COc1ccc(CC(=O)NC(=S)NNC(=O)COc2c(C)cccc2C)cc1,active: 0.0128,inconclusive: 0.0305,–
CC(C#N)Sc1ncnc2sc3c(c12)CCC3 (configuration not stated),inconclusive: 0.0122,inactive: 0.0219,active: 0.0129
O=C(NNC(=O)c1csc(-c2cnccc2C(F)(F)F)n1)c1ccc(C(F)(F)F)cc1,inconclusive: 0.0123,inconclusive: 0.0283,inconclusive: 0.0106
COC(CNC(=O)c1cccc(-n2c(=S)[nH]c3cc(Cl)ccc3c2=O)c1)OC,inconclusive: 0.0112,inconclusive: 0.0324,–

# A different layout for 2 compounds above:
Compound	normalised thallium flux (F/F0 slope) [1]	raw Tl+ flux slope (below DMSO = inhibition, above = activation) [2]	thallium flux slope [3]
CC1=CCC[C@@H]2[C@@](C)(CC/C(C)=C/C(=O)O)[C@H](C)CC[C@@]12C	inactive: 0.00732	inconclusive: 0.0208	–
O=C(NC(=S)N1CCCCC1)c1csc([N+](=O)[O-])c1	active: 0.0224	inconclusive: 0.0297	–
